# Paper PMC7699706, “Responses of DNA Mismatch Repair Proteins to a Stable G-Quadruplex Embedded into a DNA Duplex Structure” (International Journal of Molecular Sciences, 2020)
# Protein sequences, listed by entry. Tags and fused reporters are not part of them. Lines headed by an entry give the natural chain unless they say otherwise; changes in a name come on top.
# UniProt P23909: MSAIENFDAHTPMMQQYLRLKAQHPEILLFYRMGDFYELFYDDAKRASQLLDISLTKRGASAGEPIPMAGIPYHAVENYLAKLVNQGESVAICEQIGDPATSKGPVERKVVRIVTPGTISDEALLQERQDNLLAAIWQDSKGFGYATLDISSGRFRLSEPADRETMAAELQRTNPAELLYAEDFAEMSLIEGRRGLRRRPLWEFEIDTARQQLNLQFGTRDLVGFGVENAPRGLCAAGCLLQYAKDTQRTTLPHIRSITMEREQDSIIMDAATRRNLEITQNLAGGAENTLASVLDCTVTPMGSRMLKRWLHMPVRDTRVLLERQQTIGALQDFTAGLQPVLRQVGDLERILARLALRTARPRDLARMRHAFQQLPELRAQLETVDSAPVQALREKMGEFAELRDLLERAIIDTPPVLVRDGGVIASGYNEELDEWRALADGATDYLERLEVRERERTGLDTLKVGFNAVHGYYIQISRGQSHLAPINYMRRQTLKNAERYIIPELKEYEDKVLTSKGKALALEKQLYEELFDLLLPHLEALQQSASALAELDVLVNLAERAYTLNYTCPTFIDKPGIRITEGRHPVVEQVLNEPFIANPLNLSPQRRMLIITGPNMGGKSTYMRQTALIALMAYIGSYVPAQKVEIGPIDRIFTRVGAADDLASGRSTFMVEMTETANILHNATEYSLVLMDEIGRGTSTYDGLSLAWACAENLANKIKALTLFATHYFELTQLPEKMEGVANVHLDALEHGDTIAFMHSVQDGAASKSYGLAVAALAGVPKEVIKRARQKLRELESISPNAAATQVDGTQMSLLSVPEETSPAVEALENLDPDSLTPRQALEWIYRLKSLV
# The exact form of at least one protein or probe is not confirmed. For part of these data: Tags and fusion partners may be left off the protein sequences shown.
# How the values were obtained:
# [1] = molecular target: T1, rsMutS (Rhodobacter sphaeroides strain 2.4.1) (UniProt Q3IYI5); test: EMSA; details: 1 mM ATPgS, 5 mM MgCl2, N6-methyl-dA at position 16 of strand 1 (Gm6ATC), MutS EMSA: 5 nM DNA, 20 mM HEPES-KOH pH 7.9, 5 mM MgCl2, 120 mM KCl, 0.5 mg/mL BSA, 1 mM nucleotide, 37 C 15 min, recombinant protein, protein details: N-terminal His6 (pET15b)
# T1 sequence (looked up, limits assumed): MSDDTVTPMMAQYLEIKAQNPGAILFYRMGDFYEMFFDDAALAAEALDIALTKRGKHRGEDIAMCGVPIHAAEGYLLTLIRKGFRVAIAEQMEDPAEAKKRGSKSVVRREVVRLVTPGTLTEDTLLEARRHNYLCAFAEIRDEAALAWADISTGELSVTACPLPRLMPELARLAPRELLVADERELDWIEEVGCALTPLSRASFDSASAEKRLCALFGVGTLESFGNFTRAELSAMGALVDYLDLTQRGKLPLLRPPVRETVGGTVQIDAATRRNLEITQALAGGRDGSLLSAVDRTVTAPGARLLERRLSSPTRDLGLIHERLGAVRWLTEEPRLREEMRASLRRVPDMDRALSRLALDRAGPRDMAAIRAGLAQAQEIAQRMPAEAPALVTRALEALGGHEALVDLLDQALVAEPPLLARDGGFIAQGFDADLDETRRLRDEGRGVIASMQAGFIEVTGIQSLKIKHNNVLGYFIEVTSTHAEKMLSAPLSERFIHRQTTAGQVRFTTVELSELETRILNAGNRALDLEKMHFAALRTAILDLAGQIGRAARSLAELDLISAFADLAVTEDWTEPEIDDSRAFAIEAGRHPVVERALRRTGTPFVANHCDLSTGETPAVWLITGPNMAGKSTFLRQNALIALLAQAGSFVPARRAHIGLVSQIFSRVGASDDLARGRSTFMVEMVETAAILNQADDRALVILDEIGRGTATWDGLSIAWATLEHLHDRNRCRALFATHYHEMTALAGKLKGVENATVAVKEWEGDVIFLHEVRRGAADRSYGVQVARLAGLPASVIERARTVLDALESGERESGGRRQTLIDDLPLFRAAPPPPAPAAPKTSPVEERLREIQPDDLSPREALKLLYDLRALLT
# [2] = molecular target: ecMutS (Escherichia coli) (UniProt P23909); test: EMSA; details: 1 mM ATPgS, 5 mM MgCl2, N6-methyl-dA at position 16 of strand 1 (Gm6ATC), MutS EMSA: 5 nM DNA, 20 mM HEPES-KOH pH 7.9, 5 mM MgCl2, 120 mM KCl, 0.5 mg/mL BSA, 1 mM nucleotide, 37 C 15 min, recombinant protein
# [3] = label: 3'-TAMRA on strand 2 (76T)
# [4] = label: 3'-TAMRA on strand 2 (95(GT)8)
sequence,measurement,setting,value
TCCTTTCGCGCTTGGATCCTATGAGCGTTACTCGAGCATATGGCTCAGCTGCCAAGCACCAGTGTCAGCGTCCTAT (double strand) [76/76-A/T],Kd,[1]; [3],470 nM
same,Kd,[2]; [3],150 nM
TCCTTTCGCGCTTGGATCCTATGAGCGTTACTCGAGCATATGGCTCAGCTGCCAGGCACCAGTGTCAGCGTCCTAT / ATAGGACGCTGACACTGGTGCTTGGCAGCTGAGCCATATGCTCGAGTAACGCTCATAGGATCCAAGCGCGAAAGGA [76/76-G/T],Kd,[1]; [3],360 nM
same,Kd,[2]; [3],70 nM
TCCTTTCGCGCTTGGATCCTATGAGCGTTACTCGAGCATATGGCTCAGCTGCCAAGCACCAGTGTCAGCGTCCTAT / ATAGGACGCTGACACTGGTGCTTGGCAGCTGAGCCATATTTGTGTGTGTGTGTGTGTTGCTCGAGTAACGCTCATAGGATCCAAGCGCGAAAGGA [76/95(GT)8-A/T],Kd,[1]; [4],190 nM
same,Kd,[2]; [4],80 nM
